Source: publication PMC10782615
These are yes or no findings as the source states them, for the method shown. In cells and extracts the contact can be indirect. Some binding calls cover weakened binding; strength is not graded here. For part of these data: Where a sequence is shown, tags or fusion partners need not be part of it.

The chains behind the UniProt entries cited, without tags or fusion partners.
UniProt Q99623: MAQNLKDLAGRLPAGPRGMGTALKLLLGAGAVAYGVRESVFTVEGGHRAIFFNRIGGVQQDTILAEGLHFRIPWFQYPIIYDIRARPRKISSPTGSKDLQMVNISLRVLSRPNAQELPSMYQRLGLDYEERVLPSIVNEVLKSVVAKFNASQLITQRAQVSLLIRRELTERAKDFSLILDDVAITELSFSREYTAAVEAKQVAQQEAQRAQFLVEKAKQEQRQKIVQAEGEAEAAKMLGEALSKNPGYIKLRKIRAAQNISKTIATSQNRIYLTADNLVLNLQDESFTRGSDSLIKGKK
UniProt Q969V5: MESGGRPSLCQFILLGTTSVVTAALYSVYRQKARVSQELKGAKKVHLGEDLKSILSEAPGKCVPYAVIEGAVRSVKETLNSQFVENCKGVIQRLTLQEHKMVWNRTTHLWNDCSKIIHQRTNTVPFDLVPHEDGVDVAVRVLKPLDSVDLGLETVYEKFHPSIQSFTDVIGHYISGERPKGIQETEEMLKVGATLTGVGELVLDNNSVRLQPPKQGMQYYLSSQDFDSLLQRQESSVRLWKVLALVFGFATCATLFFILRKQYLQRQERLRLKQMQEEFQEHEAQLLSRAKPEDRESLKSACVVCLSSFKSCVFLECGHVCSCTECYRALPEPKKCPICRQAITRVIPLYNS
UniProt P46934: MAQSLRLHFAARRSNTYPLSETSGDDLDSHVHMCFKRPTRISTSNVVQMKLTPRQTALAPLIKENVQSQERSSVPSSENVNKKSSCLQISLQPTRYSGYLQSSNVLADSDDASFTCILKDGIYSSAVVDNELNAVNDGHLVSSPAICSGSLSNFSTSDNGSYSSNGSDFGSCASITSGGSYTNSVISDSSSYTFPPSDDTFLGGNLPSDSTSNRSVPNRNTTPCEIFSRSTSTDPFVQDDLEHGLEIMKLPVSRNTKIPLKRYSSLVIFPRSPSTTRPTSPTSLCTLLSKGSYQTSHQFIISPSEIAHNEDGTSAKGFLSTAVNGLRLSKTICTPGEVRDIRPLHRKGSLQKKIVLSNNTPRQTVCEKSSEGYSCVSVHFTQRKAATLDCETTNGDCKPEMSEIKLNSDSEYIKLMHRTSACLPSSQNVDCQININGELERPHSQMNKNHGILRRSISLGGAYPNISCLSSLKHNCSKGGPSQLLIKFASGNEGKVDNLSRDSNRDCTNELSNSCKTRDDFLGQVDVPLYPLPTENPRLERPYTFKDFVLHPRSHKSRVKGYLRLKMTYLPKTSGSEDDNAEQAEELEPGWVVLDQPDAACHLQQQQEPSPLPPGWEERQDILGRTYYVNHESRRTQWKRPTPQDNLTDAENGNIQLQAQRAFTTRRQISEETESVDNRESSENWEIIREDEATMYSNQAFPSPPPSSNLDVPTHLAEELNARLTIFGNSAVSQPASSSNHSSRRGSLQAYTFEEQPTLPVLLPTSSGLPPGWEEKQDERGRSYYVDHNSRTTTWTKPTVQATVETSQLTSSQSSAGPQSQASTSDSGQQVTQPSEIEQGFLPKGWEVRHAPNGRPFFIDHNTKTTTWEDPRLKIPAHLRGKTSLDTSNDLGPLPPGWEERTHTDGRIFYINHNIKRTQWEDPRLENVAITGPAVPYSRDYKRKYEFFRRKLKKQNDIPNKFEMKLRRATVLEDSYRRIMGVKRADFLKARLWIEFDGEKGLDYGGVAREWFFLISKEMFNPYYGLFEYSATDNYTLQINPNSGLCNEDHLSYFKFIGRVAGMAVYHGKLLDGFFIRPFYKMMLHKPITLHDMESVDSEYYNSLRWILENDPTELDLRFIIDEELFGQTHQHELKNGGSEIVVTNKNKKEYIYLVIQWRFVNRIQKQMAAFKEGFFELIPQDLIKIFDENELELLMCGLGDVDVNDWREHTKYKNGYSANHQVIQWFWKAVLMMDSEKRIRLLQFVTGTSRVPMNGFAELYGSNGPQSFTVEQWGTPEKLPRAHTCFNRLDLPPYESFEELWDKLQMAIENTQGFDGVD
UniProt Q13619: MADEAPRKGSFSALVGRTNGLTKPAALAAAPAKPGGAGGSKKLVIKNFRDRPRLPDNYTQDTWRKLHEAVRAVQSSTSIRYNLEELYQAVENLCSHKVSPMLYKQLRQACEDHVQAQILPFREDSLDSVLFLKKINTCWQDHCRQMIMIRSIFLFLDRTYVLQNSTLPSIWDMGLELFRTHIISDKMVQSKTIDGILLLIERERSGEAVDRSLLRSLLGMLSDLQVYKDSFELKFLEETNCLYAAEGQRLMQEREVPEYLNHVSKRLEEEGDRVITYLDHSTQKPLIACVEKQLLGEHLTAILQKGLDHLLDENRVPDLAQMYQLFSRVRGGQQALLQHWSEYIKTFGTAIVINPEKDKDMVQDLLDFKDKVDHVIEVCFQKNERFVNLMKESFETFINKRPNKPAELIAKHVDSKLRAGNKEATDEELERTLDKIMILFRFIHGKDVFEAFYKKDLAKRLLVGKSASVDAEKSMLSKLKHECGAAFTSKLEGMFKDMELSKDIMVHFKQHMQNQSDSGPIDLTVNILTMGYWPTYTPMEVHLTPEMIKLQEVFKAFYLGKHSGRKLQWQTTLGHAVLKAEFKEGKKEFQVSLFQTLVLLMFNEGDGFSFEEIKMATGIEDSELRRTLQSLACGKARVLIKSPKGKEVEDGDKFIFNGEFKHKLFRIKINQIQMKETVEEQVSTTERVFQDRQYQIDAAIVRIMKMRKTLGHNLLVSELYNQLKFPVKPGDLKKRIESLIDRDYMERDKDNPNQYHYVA

What was measured:
[1] = biological target: T1, Src homology 2-containing inositol 5-phosphatase 2 (SHIP2), endogenous (human (endogenous in HGC-27 and MKN-28)) (UniProt O15357); test: co-IP; HGC-27 cells; blots for NEDD4, SIAH2, WWP2, MUL1 and Cul4A
T1 sequence: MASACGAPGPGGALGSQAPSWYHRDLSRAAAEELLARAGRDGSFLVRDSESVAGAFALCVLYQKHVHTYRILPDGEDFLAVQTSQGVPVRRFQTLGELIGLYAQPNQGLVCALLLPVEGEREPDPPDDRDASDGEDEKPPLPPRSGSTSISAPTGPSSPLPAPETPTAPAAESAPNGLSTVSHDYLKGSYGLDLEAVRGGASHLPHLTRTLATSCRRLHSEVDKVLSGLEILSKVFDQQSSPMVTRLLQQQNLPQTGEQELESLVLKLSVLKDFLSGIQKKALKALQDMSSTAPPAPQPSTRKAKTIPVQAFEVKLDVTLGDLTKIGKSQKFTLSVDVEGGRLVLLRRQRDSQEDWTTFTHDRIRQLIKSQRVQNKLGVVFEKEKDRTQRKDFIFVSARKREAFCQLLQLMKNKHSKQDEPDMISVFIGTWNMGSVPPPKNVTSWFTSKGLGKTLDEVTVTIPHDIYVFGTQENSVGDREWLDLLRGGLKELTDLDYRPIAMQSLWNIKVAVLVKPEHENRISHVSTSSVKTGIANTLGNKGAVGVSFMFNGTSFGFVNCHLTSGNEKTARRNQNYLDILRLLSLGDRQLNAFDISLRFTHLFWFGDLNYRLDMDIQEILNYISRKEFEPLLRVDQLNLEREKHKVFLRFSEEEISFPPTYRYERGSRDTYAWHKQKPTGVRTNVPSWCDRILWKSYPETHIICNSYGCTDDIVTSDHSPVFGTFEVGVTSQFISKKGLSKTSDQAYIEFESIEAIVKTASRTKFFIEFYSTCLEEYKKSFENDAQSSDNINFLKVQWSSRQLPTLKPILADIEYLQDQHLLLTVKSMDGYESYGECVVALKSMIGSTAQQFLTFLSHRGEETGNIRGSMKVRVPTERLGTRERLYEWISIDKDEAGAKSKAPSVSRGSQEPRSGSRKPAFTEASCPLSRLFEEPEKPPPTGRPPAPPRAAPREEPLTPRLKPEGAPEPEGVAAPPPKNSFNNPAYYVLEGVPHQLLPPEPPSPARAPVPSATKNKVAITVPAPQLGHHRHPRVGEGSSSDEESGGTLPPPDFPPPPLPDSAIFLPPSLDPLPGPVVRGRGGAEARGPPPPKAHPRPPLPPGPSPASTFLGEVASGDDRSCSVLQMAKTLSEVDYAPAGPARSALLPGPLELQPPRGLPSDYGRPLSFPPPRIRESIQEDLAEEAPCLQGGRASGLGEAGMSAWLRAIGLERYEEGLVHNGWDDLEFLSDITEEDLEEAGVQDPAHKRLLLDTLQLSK

[2] = biological target: Prohibitin 2 (PHB2), endogenous (human (endogenous in HGC-27 and MKN-28)) (UniProt Q99623); test: as above
[3] = biological target: Prohibitin 2 (PHB2), endogenous (human (endogenous in HGC-27 and MKN-28)) (UniProt Q99623); test: co-IP; endogenous proteins, HGC-27 and MKN-28 cell extracts, antibody and protein A/G agarose beads, 4 °C
GST-PHB2 = GST-PHB2 (UniProt Q99623); test: pull-down; tGFP-SHIP2 from HGC-27 cells (also with stable knockdown of PHB1) incubated with purified GST, GST-PHB1 or GST-PHB2 at 4 °C for 4 h, then GST beads 4 h at 4 °C; Western blot; only the target purified
[4] = biological target: Flag-PHB2 (full-length PHB2, PHB2-FL) (UniProt Q99623); test: co-IP; exogenous Flag-PHB2 and tGFP-SHIP2 in AGS cells
[5] = biological target: Flag-PHB2 (full-length PHB2, PHB2-FL) (UniProt Q99623); test: co-IP; deletion mapping of SHIP2 truncates and PHB2 mutants in HEK293T cells

MUL1 (from UniProt Q969V5 1-352) (enzyme)
binding [1]: no binding

NEDD4, endogenous (from UniProt P46934 1-1319) (enzyme)
binding [1]: binds
binding [2]: binds

Cul4A (from UniProt Q13619 1-759)
binding [1]: no binding

B1: Src homology 2-containing inositol 5-phosphatase 2 (SHIP2), endogenous (protein, UniProt O15357 1-1258)
chain: MASACGAPGPGGALGSQAPSWYHRDLSRAAAEELLARAGRDGSFLVRDSESVAGAFALCVLYQKHVHTYRILPDGEDFLAVQTSQGVPVRRFQTLGELIGLYAQPNQGLVCALLLPVEGEREPDPPDDRDASDGEDEKPPLPPRSGSTSISAPTGPSSPLPAPETPTAPAAESAPNGLSTVSHDYLKGSYGLDLEAVRGGASHLPHLTRTLATSCRRLHSEVDKVLSGLEILSKVFDQQSSPMVTRLLQQQNLPQTGEQELESLVLKLSVLKDFLSGIQKKALKALQDMSSTAPPAPQPSTRKAKTIPVQAFEVKLDVTLGDLTKIGKSQKFTLSVDVEGGRLVLLRRQRDSQEDWTTFTHDRIRQLIKSQRVQNKLGVVFEKEKDRTQRKDFIFVSARKREAFCQLLQLMKNKHSKQDEPDMISVFIGTWNMGSVPPPKNVTSWFTSKGLGKTLDEVTVTIPHDIYVFGTQENSVGDREWLDLLRGGLKELTDLDYRPIAMQSLWNIKVAVLVKPEHENRISHVSTSSVKTGIANTLGNKGAVGVSFMFNGTSFGFVNCHLTSGNEKTARRNQNYLDILRLLSLGDRQLNAFDISLRFTHLFWFGDLNYRLDMDIQEILNYISRKEFEPLLRVDQLNLEREKHKVFLRFSEEEISFPPTYRYERGSRDTYAWHKQKPTGVRTNVPSWCDRILWKSYPETHIICNSYGCTDDIVTSDHSPVFGTFEVGVTSQFISKKGLSKTSDQAYIEFESIEAIVKTASRTKFFIEFYSTCLEEYKKSFENDAQSSDNINFLKVQWSSRQLPTLKPILADIEYLQDQHLLLTVKSMDGYESYGECVVALKSMIGSTAQQFLTFLSHRGEETGNIRGSMKVRVPTERLGTRERLYEWISIDKDEAGAKSKAPSVSRGSQEPRSGSRKPAFTEASCPLSRLFEEPEKPPPTGRPPAPPRAAPREEPLTPRLKPEGAPEPEGVAAPPPKNSFNNPAYYVLEGVPHQLLPPEPPSPARAPVPSATKNKVAITVPAPQLGHHRHPRVGEGSSSDEESGGTLPPPDFPPPPLPDSAIFLPPSLDPLPGPVVRGRGGAEARGPPPPKAHPRPPLPPGPSPASTFLGEVASGDDRSCSVLQMAKTLSEVDYAPAGPARSALLPGPLELQPPRGLPSDYGRPLSFPPPRIRESIQEDLAEEAPCLQGGRASGLGEAGMSAWLRAIGLERYEEGLVHNGWDDLEFLSDITEEDLEEAGVQDPAHKRLLLDTLQLSK
binding [3]: binds

B2: tGFP-SHIP2 (full-length SHIP2, SHIP2-FL) (protein, UniProt O15357 1-1258)
chain: MASACGAPGPGGALGSQAPSWYHRDLSRAAAEELLARAGRDGSFLVRDSESVAGAFALCVLYQKHVHTYRILPDGEDFLAVQTSQGVPVRRFQTLGELIGLYAQPNQGLVCALLLPVEGEREPDPPDDRDASDGEDEKPPLPPRSGSTSISAPTGPSSPLPAPETPTAPAAESAPNGLSTVSHDYLKGSYGLDLEAVRGGASHLPHLTRTLATSCRRLHSEVDKVLSGLEILSKVFDQQSSPMVTRLLQQQNLPQTGEQELESLVLKLSVLKDFLSGIQKKALKALQDMSSTAPPAPQPSTRKAKTIPVQAFEVKLDVTLGDLTKIGKSQKFTLSVDVEGGRLVLLRRQRDSQEDWTTFTHDRIRQLIKSQRVQNKLGVVFEKEKDRTQRKDFIFVSARKREAFCQLLQLMKNKHSKQDEPDMISVFIGTWNMGSVPPPKNVTSWFTSKGLGKTLDEVTVTIPHDIYVFGTQENSVGDREWLDLLRGGLKELTDLDYRPIAMQSLWNIKVAVLVKPEHENRISHVSTSSVKTGIANTLGNKGAVGVSFMFNGTSFGFVNCHLTSGNEKTARRNQNYLDILRLLSLGDRQLNAFDISLRFTHLFWFGDLNYRLDMDIQEILNYISRKEFEPLLRVDQLNLEREKHKVFLRFSEEEISFPPTYRYERGSRDTYAWHKQKPTGVRTNVPSWCDRILWKSYPETHIICNSYGCTDDIVTSDHSPVFGTFEVGVTSQFISKKGLSKTSDQAYIEFESIEAIVKTASRTKFFIEFYSTCLEEYKKSFENDAQSSDNINFLKVQWSSRQLPTLKPILADIEYLQDQHLLLTVKSMDGYESYGECVVALKSMIGSTAQQFLTFLSHRGEETGNIRGSMKVRVPTERLGTRERLYEWISIDKDEAGAKSKAPSVSRGSQEPRSGSRKPAFTEASCPLSRLFEEPEKPPPTGRPPAPPRAAPREEPLTPRLKPEGAPEPEGVAAPPPKNSFNNPAYYVLEGVPHQLLPPEPPSPARAPVPSATKNKVAITVPAPQLGHHRHPRVGEGSSSDEESGGTLPPPDFPPPPLPDSAIFLPPSLDPLPGPVVRGRGGAEARGPPPPKAHPRPPLPPGPSPASTFLGEVASGDDRSCSVLQMAKTLSEVDYAPAGPARSALLPGPLELQPPRGLPSDYGRPLSFPPPRIRESIQEDLAEEAPCLQGGRASGLGEAGMSAWLRAIGLERYEEGLVHNGWDDLEFLSDITEEDLEEAGVQDPAHKRLLLDTLQLSK
binding (GST-PHB2): binds
binding [4]: binds
binding [5]: binds

B3: SIAH2 (enzyme, UniProt O43255 1-324)
chain: MSRPSSTGPSANKPCSKQPPPQPQHTPSPAAPPAAATISAAGPGSSAVPAAAAVISGPGGGGGAGPVSPQHHELTSLFECPVCFDYVLPPILQCQAGHLVCNQCRQKLSCCPTCRGALTPSIRNLAMEKVASAVLFPCKYATTGCSLTLHHTEKPEHEDICEYRPYSCPCPGASCKWQGSLEAVMSHLMHAHKSITTLQGEDIVFLATDINLPGAVDWVMMQSCFGHHFMLVLEKQEKYEGHQQFFAIVLLIGTRKQAENFAYRLELNGNRRRLTWEATPRSIHDGVAAAIMNSDCLVFDTAIAHLFADNGNLGINVTISTCCP
binding [1]: no binding
